{"source": "PubChem BioAssay AID504467", "about": "(National Center for Advancing Translational Sciences (NCATS), 2011)", "note": "“And” between values parts separate entries of the source, which are not always exact repeats. Identical values can stand only once. Screen size: about 330,000 compounds; about 7,700 (2.3%) were called active. Inconclusive results, whose numbers are uncertain, are shown with a selection of clear calls. Calls come from the whole dose curve; as a rule, active = well fitted inhibition curve with a large enough effect; inconclusive = small, poorly fitted or top-dose-only effect, or effect the other way; inactive = flat fitted curve, though single readings scatter. Where the call is inconclusive, the potency comes from a doubtful curve fit. % is set by controls: 0 for no effect and ±100 for the full control effect; potency is the fitted concentration of half-maximal effect."}
{"experiment": "qHTS screen for small molecules that inhibit ELG1-dependent DNA repair in human embryonic kidney (HEK293T) cells expressing luciferase-tagged ELG1; note: nearly all actives have a fitted effect of over 55% in size", "conditions": "HEK293T ELG1-luciferase reporter, luminescence, 16 h, DNA damage induced by 5-fluorouridine; activity change, negative = inhibition: at 46.1 µM (top of the series)", "procedure,_shortened": "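Luminescence from the luciferase reporter, measured 30 min after ONE-Glo reagent at room temperature, was the read-out. Beforehand, 2,000 cells per well were exposed for 16 hr at 37 °C to 5-fluorouridine together with compound or vehicle.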"}
{"smiles": "CCOC(=O)c1c(C)[nH]c(C(=O)N/N=C/c2ccc(OC)c(OC)c2)c1C", "activity change, negative = inhibition": "inactive: -9.03%"}
{"smiles": "NC(=O)CCCn1c(C(=O)c2ccc(Cl)cc2)c2ccc([N+](=O)[O-])cc2[n+]1[O-]", "Potency": "inconclusive: 11.2 µM [inhibitor, single point]"}
{"smiles": "Cc1cccc(NC(=S)N(Cc2ccco2)C(C)c2cccs2)c1", "note": "(stereo unspecified)", "Potency": "inconclusive: 16.4 µM [inhibitor, single point]"}
{"smiles": "CC(NC(=O)Nc1ccc(Cl)cc1)c1ccc2c(c1)OCO2", "note": "(stereo unspecified)", "activity change, negative = inhibition": "inactive: 11.7%"}
{"smiles": "CCOCC(=O)Nc1ccc(S(=O)(=O)NCC2CCCO2)cc1", "note": "(stereo unspecified)", "activity change, negative = inhibition": "inactive: -18.1%"}
{"smiles": "Cc1cc(C(=O)COC(=O)c2cc(Cl)ccc2N)c(C)n1Cc1ccco1", "Potency": "inconclusive: 4.61 µM [activator, partial curve]"}
{"smiles": "C=CCn1c(SCC(=O)NCCc2ccccc2)nnc1C1CC1", "Potency": "inconclusive: 32.6 µM [activator, single point]"}
{"smiles": "C=C(C)CNC(=S)N=Nc1c(O)[nH]c2ccc([N+](=O)[O-])cc12", "Potency": "inconclusive: 29.1 µM [inhibitor, single point]"}
{"smiles": "COc1ccc(-c2cc(C(=O)N3CCN(C(=O)c4ccccc4F)CC3)[nH]n2)cc1", "Potency": "inconclusive: 32.6 µM [inhibitor, single point]"}
{"smiles": "COc1cccc(C2c3c(oc4ccc(Cl)cc4c3=O)C(=O)N2c2cc(C)on2)c1OC", "note": "(stereo unspecified)", "Potency": "inconclusive: 10.3 µM [inhibitor, partial curve]"}
{"smiles": "Cc1cccc(NC(=O)CNC(=O)COc2cccnc2[N+](=O)[O-])c1C", "activity change, negative = inhibition": "inactive: 3.45%"}
{"smiles": "Cc1ccc2[nH]c(=O)c(CN(Cc3ccco3)C(=O)c3ccncc3)cc2c1", "Potency": "inconclusive: 25.9 µM [inhibitor, single point]"}
{"smiles": "O=C(N/N=C/c1ccc(Br)s1)c1ccncc1", "Potency": "inconclusive: 16.4 µM [inhibitor, partial curve]"}
{"smiles": "Cc1ccc2[nH]c(C(=O)O)c(NC(=O)[C@@H]3C[C@@H]3c3ccccc3)c2c1", "activity change, negative = inhibition": "inactive: 13.3%"}
{"smiles": "Cc1cc(N/C=C\\c2nnnn2-c2ccccc2)no1", "Potency": "inconclusive: 14.6 µM [activator, partial curve]"}
{"smiles": "CCNC(=S)N/N=C/c1cc(C)n(-c2ccc(Cl)cc2)c1C", "Potency": "inconclusive: 6.51 µM [activator, full curve, poor fit]"}
{"smiles": "Cc1ccc(C)c(N2CCN(C(=O)CCc3nc(-c4cccc(F)c4)no3)CC2)c1", "activity change, negative = inhibition": "inactive: 7.64%"}
{"smiles": "CCN(CC)c1ccc(NC(=O)C2=CCN(S(=O)(=O)c3ccc(F)cc3)CC2)c(C)c1", "activity change, negative = inhibition": "inactive: -9.15%"}
{"smiles": "CCCc1nnc(NC(=O)C2CC(=O)N(CCc3ccc(F)cc3)C2)s1", "note": "(stereo unspecified)", "activity change, negative = inhibition": "inconclusive: 38.9% [activator]"}
{"smiles": "Cc1ccc(NC(=O)C2CCN(S(C)(=O)=O)CC2)cc1Cl", "Potency": "inconclusive: 0.259 µM [inhibitor, single point]"}
{"smiles": "Cc1cc(C)n(C(=O)/C(C#N)=N/Nc2cc(Cl)cc(Cl)c2)n1", "Potency": "active: 16.4 µM"}
{"smiles": "Cc1ccc(C)c(-n2nnnc2Sc2nnnn2-c2ccccc2)c1", "Potency": "active: 20.6 µM"}
{"smiles": "CSc1ccc(Cl)c(C(=O)N2CCOc3ccccc32)c1", "Potency": "active: 9.2 µM"}
{"smiles": "CCOC(=O)CNC(=O)CSc1nnc(-c2ccccc2)n1Cc1ccco1", "activity change, negative = inhibition": "inactive: 6.54%"}
{"smiles": "CC(C)CC1Nc2ncnc(N3CCOCC3)c2N(Cc2ccccc2)C1=O", "note": "(stereo unspecified)", "Potency": "inconclusive: 16.4 µM [activator, partial curve, poor fit]"}
{"smiles": "Cc1ccc2c(C)c(C(=O)Nc3cccnc3)oc2c1", "Potency": "inconclusive: 8.2 µM [activator, partial curve]"}
{"smiles": "Brc1ccc2[nH]ncc2c1", "activity change, negative = inhibition": "inactive: -9.63%"}
{"smiles": "Clc1cccc(-c2nnc(-c3ccccc3)o2)c1", "Potency": "inconclusive: 2.24 µM [activator, full curve]"}
{"smiles": "CC1=CC(C)=Nc2ccc(C)cc2N1", "Potency": "inconclusive: 10.3 µM [activator, partial curve] and inconclusive: 16.4 µM [activator, partial curve]"}
{"smiles": "COc1cc(C2C=C(Nc3ccccc3)C(=O)N2c2ccccc2)ccc1O", "note": "(stereo unspecified)", "Potency": "inconclusive: 20.6 µM [inhibitor, single point]"}
{"smiles": "CS(=O)(=O)c1ccc(S(=O)(=O)N2CCC(CO)(CCCc3ccccc3)CC2)cc1", "Potency": "inconclusive: 29.1 µM [inhibitor, single point]"}
{"smiles": "C/C(N)=C(/C#N)C(=O)CSc1nnc(SCc2ccc(Cl)cc2)s1", "Potency": "inconclusive: 9.2 µM [inhibitor, partial curve, poor fit]"}
{"smiles": "O=C(COC(=O)C1COc2ccccc2O1)NC(=O)Nc1ccc2c(c1)OCCO2", "note": "(stereo unspecified)", "Potency": "inconclusive: 16.4 µM [activator, partial curve]"}
{"smiles": "CCCCc1nc2cc(C(=O)N3CCCCC3C(=O)OC)ccc2o1", "note": "(stereo unspecified)", "Potency": "inconclusive: 18.3 µM [activator, partial curve]"}
{"smiles": "CCN(CC)S(=O)(=O)c1ccc(NC(=O)c2ccc(OCC3CCCO3)cc2)cc1", "note": "(stereo unspecified)", "Potency": "inconclusive: 20 µM [inhibitor, partial curve, poor fit]"}
{"smiles": "CC1CCCCC1NC(=O)/C(C#N)=C/c1ccccc1F", "note": "(stereo unspecified)", "Potency": "active: 25.9 µM"}
{"smiles": "O=C(NC1CCCCCCC1)C1=COCCO1", "Potency": "inconclusive: 16.4 µM [activator, partial curve, poor fit]"}
{"smiles": "CN1C(=O)Cc2cc(S(=O)(=O)Nc3ccc(Cl)cc3)ccc21", "activity change, negative = inhibition": "inactive: 17.9%"}
{"smiles": "CC1CCCCN1C(=O)CSc1nnc(-c2ccccc2F)o1", "note": "(stereo unspecified)", "Potency": "inconclusive: 20.6 µM [activator, partial curve]"}
{"smiles": "O=C1N(Cc2cccc(Cl)c2)C[C@@H]2C[C@@H](c3ccccn3)N3CCC[C@@]123", "activity change, negative = inhibition": "inactive: 4.31%"}
{"smiles": "Cc1nn(CCCC(=O)Nc2cc(Oc3ccccc3)cc([N+](=O)[O-])c2)c(C)c1[N+](=O)[O-]", "Potency": "inconclusive: 23.1 µM [inhibitor, single point]"}
{"smiles": "CC(C)(C)C(=O)N1CCN(c2ccc(NC(=O)c3ccco3)cc2)CC1", "activity change, negative = inhibition": "inactive: -3.99%"}
{"smiles": "O=C(O)c1ccc(N2Cc3ccccc3C2)cc1O", "Potency": "inconclusive: 16.4 µM [activator, single point]"}
{"smiles": "CC(=O)c1ccc(NC(=O)C[n+]2ccc(N(C)C)cc2)cc1", "activity change, negative = inhibition": "inactive: -9.71%"}
{"smiles": "CN(Cc1ccccc1)S(=O)(=O)c1ccc(NC(=S)NC(=O)C2CCCC2)cc1", "Potency": "active: 16.4 µM"}
{"smiles": "COC(=O)c1ccc(COc2c(F)c(F)cc(F)c2F)o1", "activity change, negative = inhibition": "inactive: -5.02%"}
{"smiles": "CNC(=O)c1cc(C(=O)c2ccc(C(F)(F)F)cc2)c[nH]1", "Potency": "inconclusive: 18.3 µM [activator, partial curve, poor fit]"}
{"smiles": "O=[N+]([O-])c1ccc2nc(N3CCCC3)sc2c1", "Potency": "inconclusive: 8.2 µM [activator, partial curve]"}
{"smiles": "Cc1ccc(C(=O)N2CCC3(CC2)Oc2ccc(F)cc2C(=O)C32CC(c3cccnc3)=NO2)s1", "note": "(stereo unspecified)", "Potency": "inconclusive: 23.1 µM [inhibitor, partial curve]"}
{"smiles": "CCc1cccc(C)c1NC(=O)CC1Oc2ccc(C)cc2NC1=O", "note": "(stereo unspecified)", "Potency": "inconclusive: 16.4 µM [activator, single point]"}
{"smiles": "CC(C)c1ccc(NC(=O)c2snc3ccc(Cl)cc23)cc1", "Potency": "inconclusive: 3.66 µM [activator, full curve]"}
{"smiles": "C/C(=N/OC(=O)c1ccc(C)cc1)c1cccs1", "Potency": "inconclusive: 0.58 µM [activator, partial curve, poor fit]"}
{"smiles": "S=C(Nc1ccc(Br)cc1)NC1CCCCC1", "Potency": "inconclusive: 18.4 µM [activator, partial curve]"}
{"smiles": "COc1ccc(C(=O)CC(=O)C(=O)Nc2ccc(C)c(C)c2)cc1", "activity change, negative = inhibition": "inactive: -23.8%"}
{"smiles": "Cc1ccccc1N1C(=O)C(Oc2ccc(Cl)cc2)C1CNCC1CCCO1", "note": "(stereo unspecified)", "Potency": "inconclusive: 32.6 µM [inhibitor, single point]"}
{"smiles": "Cc1ccc(NC(=O)c2cc([N+](=O)[O-])ccc2N2CCCC2)cc1", "Potency": "inconclusive: 6.51 µM [inhibitor, partial curve]"}
{"smiles": "Cc1n[nH]c(=O)n1-c1ccc(OCc2ccccc2)cc1", "Potency": "inconclusive: 20.6 µM [activator, partial curve]"}
{"smiles": "Fc1ccc(Nc2nc(N3CCOCC3)c3ccccc3n2)cc1", "Potency": "inconclusive: 11.2 µM [inhibitor, partial curve, poor fit]"}
{"smiles": "O=C(/C=N/O)NCc1cccnc1", "activity change, negative = inhibition": "inactive: 5.28%"}
{"smiles": "CCc1cc2c(N3CCN(c4ccccc4)CC3)ncnc2s1", "Potency": "inconclusive: 7.31 µM [inhibitor, single point]"}
{"smiles": "O=C(CCn1c(=O)[nH]c2ccsc2c1=O)N(CCc1ccccc1)Cc1ccccc1", "Potency": "inconclusive: 20.6 µM [inhibitor, partial curve]"}
{"smiles": "Cc1ccc(C)c(S(=O)(=O)N2CCN(C(=O)[C@@H]3CCCN3C(=O)c3cccs3)CC2)c1", "Potency": "inconclusive: 29.1 µM [inhibitor, single point]"}
{"smiles": "COCCN(CCOC)C(=S)Nc1ccccc1Cl", "activity change, negative = inhibition": "inactive: 6.84%"}
{"smiles": "Cc1cc(C)n2nc(SC(C)C(=O)Nc3ccccc3F)nc2n1", "note": "(stereo unspecified)", "activity change, negative = inhibition": "inactive: 1.96%"}
{"smiles": "CCOc1ccc(N2C(=O)S/C(=C\\c3ccc(O)c(OCC)c3)C2=O)cc1", "Potency": "inconclusive: 5.17 µM [activator, partial curve, poor fit]"}
{"smiles": "O=C(Nc1ccc(Oc2ccccc2)cc1)C1CCN(c2ncccn2)CC1", "activity change, negative = inhibition": "inactive: -9.87%"}
{"smiles": "N#Cc1ccc(NC(=O)CN2CCN(c3ccccn3)CC2)cc1", "activity change, negative = inhibition": "inactive: -18.4%"}
{"smiles": "COC(=O)c1ccc(CNC(=O)/C=C/c2cc([N+](=O)[O-])ccc2OC(F)F)cc1", "Potency": "active: 10.3 µM"}
{"smiles": "O=C(Nc1ccc(F)cc1)NC1CCCCCCC1", "Potency": "inconclusive: 14.6 µM [activator, partial curve]"}
{"smiles": "Cc1cccc(-n2c(SCc3cc(=O)n4c(C)cccc4n3)nc3[nH]ncc3c2=O)c1", "Potency": "inconclusive: 23.1 µM [inhibitor, single point]"}
{"smiles": "Cc1cc(C(=O)Nc2ccccc2C)on1", "Potency": "inconclusive: 5.8 µM [activator, single point]"}
